{
  "source": "PubChem BioAssay AID504467",
  "about": "(National Center for Advancing Translational Sciences (NCATS), 2011)",
  "note": "About 7,700 (2.3%) of roughly 330,000 compounds were called active. Inconclusive means that the source gave no clear call. Such entries were picked first, then a sample of the others. The call rests on the fitted dose curve; in most records, active means well fitted inhibition curve with a large enough effect; inconclusive means small, poorly fitted or top-dose-only effect, or effect the other way; inactive means flat fitted curve, though single readings scatter. A potency beside an inconclusive call is a rough fit, not a confirmed value. On the % scale 0 is the no-effect control and ±100 the full control effect; potency means the concentration at half of the fitted maximal effect.",
  "data": [
    {"assay": "qHTS screen for small molecules that inhibit ELG1-dependent DNA repair in human embryonic kidney (HEK293T) cells expressing luciferase-tagged ELG1; further: nearly all actives have a fitted effect of over 55% in size", "details": "HEK293T ELG1-luciferase reporter, luminescence, 16 h, DNA damage induced by 5-fluorouridine; activity change, negative = inhibition: at 46.1 µM (top of the series)", "how_it_was_run": "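5-Fluorouridine DNA damage + compound/DMSO, 2,000 cells/well, 16 h, 37 °C/5% CO2. ONE-Glo, 30 min RT, luminescence. Readout = decrease in reporter signal.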", "values": [
      {"molecule": "O=c1oc2cc(O)ccc2cc1-c1ccc(F)cc1", "Potency": "inconclusive: 20.6 µM [activator, partial curve]"},
      {"molecule": "Cc1ccc2cc(C#N)c(NCCNC(=O)C3CC3)nc2c1C", "Potency": "active: 20.6 µM"},
      {"molecule": "COc1ccc(S(=O)(=O)N2CCCCCC2)cc1NC(=O)c1c2c(nc3ccccc13)CCN(Cc1ccccc1)C2", "Potency": "inconclusive: 29.1 µM [inhibitor, single point]"},
      {"molecule": "O=C(N1CCOCC1)N1CCc2ccccc21", "activity change, negative = inhibition": "inactive: -3.2%"},
      {"molecule": "CC(=O)Nc1ccc(S(=O)(=O)Nc2cccc(-c3nc4ccccc4o3)c2)cc1", "Potency": "inconclusive: 16.4 µM [inhibitor, single point]"},
      {"molecule": "O=C(NCc1ccc(Cl)cc1)c1cccc(S(=O)(=O)N2CCCC2)c1", "Potency": "inconclusive: 20.6 µM [inhibitor, single point]"},
      {"molecule": "O=c1[nH]c(Cc2cccs2)nc2ccccc12", "activity change, negative = inhibition": "inactive: -18.8%"},
      {"molecule": "O=C(COC(=O)c1ccc(Cl)nc1)NC1CCCCCC1", "activity change, negative = inhibition": "inactive: 5.13%"},
      {"molecule": "O=C(/C=C/c1ccc(Cl)cc1)OCC(=O)c1ccc[nH]1", "Potency": "inconclusive: 8.2 µM [activator, partial curve]"},
      {"molecule": "Cc1nc(-c2ccc3c(c2)CCC(=O)N3)cs1", "Potency": "inconclusive: 20.6 µM [activator, partial curve]"},
      {"molecule": "CN1C(=O)COc2ccc(C(=O)c3oc4ccccc4c3-c3cnc4c(c3)COc3ccccc3-4)cc21", "Potency": "active: 9.2 µM"},
      {"molecule": "Cc1c(C(=O)NC2CCCc3ccccc32)cccc1[N+](=O)[O-]", "note": "(configuration not stated)", "activity change, negative = inhibition": "inactive: -0.966%"},
      {"molecule": "Cc1nc([N+](=O)[O-])c(C(=O)O)n1C", "activity change, negative = inhibition": "inactive: 17.3%"},
      {"molecule": "Cc1c(NC(=O)Nc2ccc(C#N)cc2)c(=O)n(-c2ccccc2)n1C", "Potency": "inconclusive: 18.3 µM [activator, partial curve, poor fit]"},
      {"molecule": "Cc1ccsc1/C=C(/C#N)C(=O)NCc1ccccc1", "Potency": "inconclusive: 13 µM [activator, partial curve]"},
      {"molecule": "Cc1csc(=O)n1CC(=O)OCC(=O)Nc1ccc(F)c(F)c1", "activity change, negative = inhibition": "inactive: 7.6%"},
      {"molecule": "CCN1C(=O)C(CC(=O)Nc2cc(C)ccc2C)SC1=Nc1ccc(S(N)(=O)=O)cc1", "note": "(configuration not stated)", "Potency": "inconclusive: 23.1 µM [inhibitor, single point]"},
      {"molecule": "Cc1ccc(C)c(-n2c(-c3csc(C)c3)n[nH]c2=S)c1", "activity change, negative = inhibition": "inactive: 1.2%"},
      {"molecule": "O=C(Nc1cccc(S(=O)(=O)NC2=NCCC2)c1)c1c(F)cccc1Cl", "activity change, negative = inhibition": "inactive: 10%"},
      {"molecule": "CCOC(=O)C1=CN(Cc2cccc(Br)c2)S(=O)(=O)N(CC)C1C", "note": "(configuration not stated)", "activity change, negative = inhibition": "inactive: 2.91%"},
      {"molecule": "N/C(=N\\OC(=O)Nc1ccccc1)c1ncc([N+](=O)[O-])s1", "Potency": "inconclusive: 9.2 µM [inhibitor, partial curve, poor fit]"},
      {"molecule": "CCc1cc(=O)oc2c(C)c(OC(C)C(=O)N3CC[C@@]4(O)CCCC[C@H]4C3)ccc12", "note": "(some centres not stated)", "Potency": "inconclusive: 0.0058 µM [activator, full curve, poor fit]"},
      {"molecule": "Cc1ccc2c(c1)[nH]c1c(=O)n(Cc3ccco3)cnc12", "Potency": "inconclusive: 7.3 µM [activator, partial curve]"},
      {"molecule": "Cc1csc(=O)n1CC(=O)OCC(=O)c1c(N)n(CC(C)C)c(=O)n(C)c1=O", "Potency": "inconclusive: 29.1 µM [inhibitor, single point]"},
      {"molecule": "O=C(Nc1ccc2c(c1)nc1n2CCSC1)c1ccco1", "Potency": "inconclusive: 2.31 µM [activator, partial curve]"},
      {"molecule": "CCCOC(=O)c1ccc(O)cc1", "Potency": "inconclusive: 25.9 µM [activator, single point]"},
      {"molecule": "COc1cc(CCC(=O)Nc2sccc2C#N)cc(OC)c1OC", "Potency": "active: 23.1 µM"},
      {"molecule": "Cc1ccccc1OCC(=O)O/N=C(\\N)c1ccncc1", "Potency": "inconclusive: 20.6 µM [activator, partial curve]"},
      {"molecule": "CN(C)c1oc(-c2ccccc2[N+](=O)[O-])nc1C#N", "activity change, negative = inhibition": "inactive: 1.32%"},
      {"molecule": "CN(C)c1ncc(CN2CCC(CO)(CCCc3ccccc3)CC2)s1", "Potency": "inconclusive: 14.6 µM [activator, partial curve, poor fit]"},
      {"molecule": "CCN(CC)CCNCc1ccc(OCc2ccc(Cl)nc2)c(OC)c1", "Potency": "inconclusive: 14.6 µM [activator, single point]"},
      {"molecule": "CC(=O)Nc1ccc(SCC(=O)c2cc(C)n(CC(F)(F)F)c2C)cc1", "Potency": "inconclusive: 13 µM [activator, partial curve]"},
      {"molecule": "Cc1ccc(CNC(=O)Cn2nnc(C(=O)Nc3ccc(Br)cc3)c2N)cc1", "activity change, negative = inhibition": "inactive: 5.28%"},
      {"molecule": "CS(=O)(=O)c1ccc(Cl)c(NC(=O)C2CC(=O)N(Cc3ccccc3)C2)c1", "note": "(configuration not stated)", "Potency": "inconclusive: 0.92 µM [inhibitor, partial curve, poor fit]"},
      {"molecule": "CCOC(=O)c1ccc(NC(=O)c2ccc(C)c(S(=O)(=O)N3CCOCC3)c2)cc1", "Potency": "active: 4.61 µM"},
      {"molecule": "Nc1cc(=O)[nH]c(SCC(=O)Nc2ccc(N3CCOCC3)cc2)n1", "activity change, negative = inhibition": "inactive: 14.5%"},
      {"molecule": "CCN1/C(=C/c2ccc3cc(C)ccc3[n+]2CC)Sc2cc(C)ccc21", "Potency": "active: 2.06 µM"},
      {"molecule": "CC1CCN(C(=O)C2CCN(C(=O)c3cc4sccc4n3Cc3ccc(F)cc3)CC2)CC1", "Potency": "active: 16.4 µM"},
      {"molecule": "COc1ccc(OC)c(NC(=S)N(CCc2c(C)[nH]c3ccccc23)Cc2cccs2)c1", "activity change, negative = inhibition": "inactive: -20%"},
      {"molecule": "CCCCCOc1ccc(C(=O)NCC(=O)NCC(=O)OCC)cc1", "Potency": "inconclusive: 4.61 µM [inhibitor, partial curve, poor fit]"},
      {"molecule": "O=C(Nc1ccccn1)c1ccc(Cl)c(S(=O)(=O)N2CCCC2)c1", "Potency": "inconclusive: 11.6 µM [activator, partial curve, poor fit]"},
      {"molecule": "CCn1c(CNC(=O)Cc2ccc(OC)cc2)nnc1SCC(=O)c1ccc(Br)cc1", "activity change, negative = inhibition": "inactive: -9.43%"},
      {"molecule": "COc1ccc(C(=O)c2c(C)oc3ccc(O)c(CN4CCOCC4)c23)cc1", "Potency": "inconclusive: 18.4 µM [inhibitor, single point]"},
      {"molecule": "COc1ccc(-c2csc(Nc3ccccn3)n2)cc1", "Potency": "inconclusive: 1.03 µM [activator, partial curve]"},
      {"molecule": "O=C(NCC(c1cccs1)N1CCc2ccccc21)c1ccccc1", "note": "(configuration not stated)", "Potency": "inconclusive: 5.8 µM [inhibitor, single point]"},
      {"molecule": "O=C(CSc1nc(-c2ccc(F)cc2)cs1)NC(=O)NCc1ccco1", "Potency": "inconclusive: 32.6 µM [inhibitor, single point]"},
      {"molecule": "COCCN(C(=O)C(F)(F)F)C(C(=O)NC1CCCCC1)c1ccco1", "note": "(configuration not stated)", "Potency": "inconclusive: 1.16 µM [activator, single point]"}
    ]}
  ]
}
